The numbers were not newly measured in US9387169B2, “Rapamycin powders for pulmonary delivery” (Civitas Therapeutics, Inc., priority 2014, dated 2016), which cites them from elsewhere.

The conditions of this data set: crystalline powder.

In the case of `CO[C@H]1C[C@@H]2CC[C@@H](C)[C@@](O)(O2)C(=O)C(=O)N2CCCC[C@H]2C(=O)O[C@H]([C@H](C)C[C@@H]2CC[C@@H](O)[C@H](OC)C2)CC(=O)[C@H](C)/C=C(\C)[C@@H](O)[C@@H](OC)C(=O)[C@H](C)C[C@H](C)/C=C/C=C/C=C/1C` [Rapamycin], the solubility in water result is “insoluble in water”.
